In article doi:10.1101/186023 one finds binding data, which are given here for two substances.

Protein sequences, listed by entry. Tags and fused reporters are not part of them.
UniProt P26361: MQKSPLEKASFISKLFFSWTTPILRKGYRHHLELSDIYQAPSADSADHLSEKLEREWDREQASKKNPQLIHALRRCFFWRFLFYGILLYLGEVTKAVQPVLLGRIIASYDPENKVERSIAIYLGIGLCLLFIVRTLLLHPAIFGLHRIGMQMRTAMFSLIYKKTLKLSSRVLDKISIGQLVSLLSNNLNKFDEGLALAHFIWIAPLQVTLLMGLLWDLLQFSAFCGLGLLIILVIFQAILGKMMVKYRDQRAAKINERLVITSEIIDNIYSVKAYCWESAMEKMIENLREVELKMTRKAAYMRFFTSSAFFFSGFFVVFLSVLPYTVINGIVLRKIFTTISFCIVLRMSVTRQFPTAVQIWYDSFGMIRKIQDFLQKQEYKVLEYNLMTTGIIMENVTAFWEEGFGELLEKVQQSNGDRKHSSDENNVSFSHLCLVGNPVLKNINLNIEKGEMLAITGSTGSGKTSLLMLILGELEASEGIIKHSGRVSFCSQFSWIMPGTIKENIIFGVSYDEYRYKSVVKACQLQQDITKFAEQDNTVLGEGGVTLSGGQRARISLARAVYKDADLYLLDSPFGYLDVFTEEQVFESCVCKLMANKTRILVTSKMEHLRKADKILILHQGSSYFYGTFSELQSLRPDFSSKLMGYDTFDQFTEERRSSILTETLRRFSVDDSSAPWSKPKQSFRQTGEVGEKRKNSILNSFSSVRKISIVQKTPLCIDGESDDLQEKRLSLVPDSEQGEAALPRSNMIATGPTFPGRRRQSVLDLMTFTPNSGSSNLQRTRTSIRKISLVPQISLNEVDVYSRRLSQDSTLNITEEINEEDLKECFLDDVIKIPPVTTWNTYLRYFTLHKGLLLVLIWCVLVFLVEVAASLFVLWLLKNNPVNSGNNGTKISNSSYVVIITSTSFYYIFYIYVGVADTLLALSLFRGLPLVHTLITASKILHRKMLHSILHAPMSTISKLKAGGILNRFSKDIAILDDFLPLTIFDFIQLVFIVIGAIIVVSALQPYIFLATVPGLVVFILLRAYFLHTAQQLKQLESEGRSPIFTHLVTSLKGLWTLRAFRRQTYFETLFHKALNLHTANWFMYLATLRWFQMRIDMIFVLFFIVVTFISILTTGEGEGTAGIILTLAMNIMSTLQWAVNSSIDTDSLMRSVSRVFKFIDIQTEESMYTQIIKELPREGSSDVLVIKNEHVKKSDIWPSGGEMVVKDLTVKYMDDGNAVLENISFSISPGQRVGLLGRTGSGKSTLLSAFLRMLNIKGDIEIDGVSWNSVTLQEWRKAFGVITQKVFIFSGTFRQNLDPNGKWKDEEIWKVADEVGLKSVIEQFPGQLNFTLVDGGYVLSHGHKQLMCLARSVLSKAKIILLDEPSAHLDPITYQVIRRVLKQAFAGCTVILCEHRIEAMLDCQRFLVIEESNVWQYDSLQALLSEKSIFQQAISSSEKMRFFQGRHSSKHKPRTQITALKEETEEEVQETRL
UniProt Q9JL06: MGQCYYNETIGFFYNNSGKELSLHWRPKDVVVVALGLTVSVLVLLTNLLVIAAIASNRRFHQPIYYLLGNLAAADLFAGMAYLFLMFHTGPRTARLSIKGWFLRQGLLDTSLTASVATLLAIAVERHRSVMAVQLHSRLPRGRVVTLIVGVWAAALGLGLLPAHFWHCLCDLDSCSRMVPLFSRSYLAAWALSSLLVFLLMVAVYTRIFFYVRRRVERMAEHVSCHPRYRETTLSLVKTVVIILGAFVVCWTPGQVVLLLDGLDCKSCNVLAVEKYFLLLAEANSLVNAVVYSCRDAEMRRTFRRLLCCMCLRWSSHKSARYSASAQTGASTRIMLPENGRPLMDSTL
UniProt Q9JHL1: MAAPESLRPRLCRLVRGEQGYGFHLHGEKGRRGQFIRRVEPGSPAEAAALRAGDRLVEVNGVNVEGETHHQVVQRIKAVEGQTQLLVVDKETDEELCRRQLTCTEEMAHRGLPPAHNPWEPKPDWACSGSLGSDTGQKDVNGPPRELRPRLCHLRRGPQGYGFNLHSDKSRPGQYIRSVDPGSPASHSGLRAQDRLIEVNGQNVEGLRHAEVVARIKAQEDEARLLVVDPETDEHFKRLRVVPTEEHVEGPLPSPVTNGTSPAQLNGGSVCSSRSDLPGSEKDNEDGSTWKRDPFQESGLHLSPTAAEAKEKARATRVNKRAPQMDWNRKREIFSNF

No constants are given. Whether binding was seen depends on the method and setting. In cells and extracts the contact can be indirect. Some entries that bind do so weakly or less than the wild type.

Test [1] has as its target CFTR (mouse (endogenous in mICcl2)) (UniProt P26361). Kind of test: proximity ligation.
The target is the same in test [2]. Kind of test: co-IP.

As for “LPA2 (from UniProt Q9JL06 1-348) (receptor)”, the binding entry in test [1] and in test [2] was “binds” in each case.

For NHERF2 (from UniProt Q9JHL1 1-337), the binding result in test [1] and in test [2] was “binds” in each case.
